PMC12158781
These are yes or no findings as the source states them, for the method shown. Binding seen in cells or lysates may run through a third protein. Some binding calls cover weakened binding; strength is not graded here.

Protein sequences, listed by entry. Tags and fused reporters are not part of them.
UniProt P35222: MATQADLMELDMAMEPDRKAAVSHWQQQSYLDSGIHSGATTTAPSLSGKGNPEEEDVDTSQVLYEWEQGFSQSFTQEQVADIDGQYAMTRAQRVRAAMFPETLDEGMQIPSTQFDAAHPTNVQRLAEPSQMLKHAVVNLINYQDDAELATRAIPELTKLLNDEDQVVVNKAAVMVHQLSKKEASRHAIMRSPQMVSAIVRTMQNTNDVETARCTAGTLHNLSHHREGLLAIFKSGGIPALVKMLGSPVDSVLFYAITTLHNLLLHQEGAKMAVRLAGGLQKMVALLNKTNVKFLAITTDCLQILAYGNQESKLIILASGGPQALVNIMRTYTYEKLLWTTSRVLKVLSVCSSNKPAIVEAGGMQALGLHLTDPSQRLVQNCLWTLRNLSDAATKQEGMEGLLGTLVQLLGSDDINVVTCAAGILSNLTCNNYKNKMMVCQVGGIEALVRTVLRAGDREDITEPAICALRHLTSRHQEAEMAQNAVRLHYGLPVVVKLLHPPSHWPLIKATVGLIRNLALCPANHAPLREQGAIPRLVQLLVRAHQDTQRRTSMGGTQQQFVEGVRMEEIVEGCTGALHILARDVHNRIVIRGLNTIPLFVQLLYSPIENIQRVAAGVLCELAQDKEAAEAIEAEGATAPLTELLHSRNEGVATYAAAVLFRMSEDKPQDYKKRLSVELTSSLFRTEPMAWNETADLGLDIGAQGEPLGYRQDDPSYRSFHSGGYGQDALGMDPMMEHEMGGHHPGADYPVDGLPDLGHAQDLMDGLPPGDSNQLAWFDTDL

Tests used:
[1] = target: β-catenin (human (endogenous in THP-1)) (UniProt P35222); assay: condition: only cells without combo treatment (vehicle or a single inhibitor); co-IP; THP-1 cells treated with vehicle or a single inhibitor (GSK-LSD1 or LY2090314) for 5 days; 1.5-2 mg cleared lysate, 10 µg antibody pre-bound to protein G Dynabeads, overnight at 4 °C, IP buffer 10 mM Tris-HCl pH 7.6, 150 mM NaCl, 0.2% NP-40; western blot
[2] = target: β-catenin (human (endogenous in THP-1)) (UniProt P35222); assay: co-IP; THP-1 cells treated with the combination of GSK-LSD1 and LY2090314 (combo) for 5 days; 1.5-2 mg cleared lysate, 10 µg antibody pre-bound to protein G Dynabeads, overnight at 4 °C, IP buffer 10 mM Tris-HCl pH 7.6, 150 mM NaCl, 0.2% NP-40; western blot

- binding [1]: no binding
- binding [2]: binds
B1: IRF7 (protein, UniProt Q92985 1-503)
chain: MALAPERAAPRVLFGEWLLGEISSGCYEGLQWLDEARTCFRVPWKHFARKDLSEADARIFKAWAVARGRWPPSSRGGGPPPEAETAERAGWKTNFRCALRSTRRFVMLRDNSGDPADPHKVYALSRELCWREGPGTDQTEAEAPAAVPPPQGGPPGPFLAHTHAGLQAPGPLPAPAGDKGDLLLQAVQQSCLADHLLTASWGADPVPTKAPGEGQEGLPLTGACAGGPGLPAGELYGWAVETTPSPGPQPAALTTGEAAAPESPHQAEPYLSPSPSACTAVQEPSPGALDVTIMYKGRTVLQKVVGHPSCTFLYGPPDPAVRATDPQQVAFPSPAELPDQKQLRYTEELLRHVAPGLHLELRGPQLWARRMGKCKVYWEVGGPPGSASPSTPACLLPRNCDTPIFDFRVFFQELVEFRARQRRGSPRYTIYLGFGQDLSAGRPKEKSLVLVKLEPWLCRVHLEGTQREGVSSLDSSSLSLCLSSANSLYDDIECFLMELEQPA
